Reference: the supplement of paper PMC12067093, “Discovery and optimisation of a covalent ligand for TRIM25 and its application to targeted protein ubiquitination” (Chemical Science, 2025)
The other results are listed elsewhere or left out.

Amino acid sequences for entries named in this document (tags omitted). A change or cut given only in a name is not applied to a line headed by its entry.
UniProt P57678: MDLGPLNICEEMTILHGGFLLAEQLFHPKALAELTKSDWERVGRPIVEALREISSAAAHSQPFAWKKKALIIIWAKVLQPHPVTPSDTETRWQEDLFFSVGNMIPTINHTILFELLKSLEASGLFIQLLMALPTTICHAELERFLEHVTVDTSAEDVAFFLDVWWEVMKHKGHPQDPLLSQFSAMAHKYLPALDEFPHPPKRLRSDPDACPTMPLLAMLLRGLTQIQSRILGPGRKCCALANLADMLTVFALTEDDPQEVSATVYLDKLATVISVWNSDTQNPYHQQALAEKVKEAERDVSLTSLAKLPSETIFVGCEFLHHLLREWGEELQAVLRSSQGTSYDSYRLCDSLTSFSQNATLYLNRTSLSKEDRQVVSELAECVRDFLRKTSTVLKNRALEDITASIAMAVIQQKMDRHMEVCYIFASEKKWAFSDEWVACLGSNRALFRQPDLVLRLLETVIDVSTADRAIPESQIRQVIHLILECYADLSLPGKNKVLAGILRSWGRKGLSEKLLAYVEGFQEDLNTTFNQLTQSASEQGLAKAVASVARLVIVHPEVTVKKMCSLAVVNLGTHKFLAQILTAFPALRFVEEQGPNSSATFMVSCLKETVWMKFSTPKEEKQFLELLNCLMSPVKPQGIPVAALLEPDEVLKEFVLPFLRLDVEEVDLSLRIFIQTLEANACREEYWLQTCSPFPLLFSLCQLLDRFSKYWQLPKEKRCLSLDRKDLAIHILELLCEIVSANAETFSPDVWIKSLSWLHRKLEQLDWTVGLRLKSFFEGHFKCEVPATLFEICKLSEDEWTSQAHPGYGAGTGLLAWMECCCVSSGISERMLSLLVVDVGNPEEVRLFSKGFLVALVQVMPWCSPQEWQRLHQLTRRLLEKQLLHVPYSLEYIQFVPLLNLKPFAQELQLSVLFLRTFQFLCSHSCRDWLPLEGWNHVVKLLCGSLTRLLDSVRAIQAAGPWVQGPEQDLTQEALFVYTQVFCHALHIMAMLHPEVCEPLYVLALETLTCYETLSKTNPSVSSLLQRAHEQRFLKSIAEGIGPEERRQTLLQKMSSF
UniProt Q96F15: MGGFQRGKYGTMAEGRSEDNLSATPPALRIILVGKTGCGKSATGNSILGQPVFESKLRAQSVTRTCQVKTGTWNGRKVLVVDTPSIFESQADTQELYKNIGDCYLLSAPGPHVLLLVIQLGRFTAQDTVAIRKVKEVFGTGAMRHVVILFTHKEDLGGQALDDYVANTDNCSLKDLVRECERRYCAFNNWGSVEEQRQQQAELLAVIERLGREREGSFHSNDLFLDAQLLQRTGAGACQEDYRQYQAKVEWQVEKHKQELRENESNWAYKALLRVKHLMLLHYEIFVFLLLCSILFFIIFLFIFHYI
UniProt Q92538, whole entry, looked up: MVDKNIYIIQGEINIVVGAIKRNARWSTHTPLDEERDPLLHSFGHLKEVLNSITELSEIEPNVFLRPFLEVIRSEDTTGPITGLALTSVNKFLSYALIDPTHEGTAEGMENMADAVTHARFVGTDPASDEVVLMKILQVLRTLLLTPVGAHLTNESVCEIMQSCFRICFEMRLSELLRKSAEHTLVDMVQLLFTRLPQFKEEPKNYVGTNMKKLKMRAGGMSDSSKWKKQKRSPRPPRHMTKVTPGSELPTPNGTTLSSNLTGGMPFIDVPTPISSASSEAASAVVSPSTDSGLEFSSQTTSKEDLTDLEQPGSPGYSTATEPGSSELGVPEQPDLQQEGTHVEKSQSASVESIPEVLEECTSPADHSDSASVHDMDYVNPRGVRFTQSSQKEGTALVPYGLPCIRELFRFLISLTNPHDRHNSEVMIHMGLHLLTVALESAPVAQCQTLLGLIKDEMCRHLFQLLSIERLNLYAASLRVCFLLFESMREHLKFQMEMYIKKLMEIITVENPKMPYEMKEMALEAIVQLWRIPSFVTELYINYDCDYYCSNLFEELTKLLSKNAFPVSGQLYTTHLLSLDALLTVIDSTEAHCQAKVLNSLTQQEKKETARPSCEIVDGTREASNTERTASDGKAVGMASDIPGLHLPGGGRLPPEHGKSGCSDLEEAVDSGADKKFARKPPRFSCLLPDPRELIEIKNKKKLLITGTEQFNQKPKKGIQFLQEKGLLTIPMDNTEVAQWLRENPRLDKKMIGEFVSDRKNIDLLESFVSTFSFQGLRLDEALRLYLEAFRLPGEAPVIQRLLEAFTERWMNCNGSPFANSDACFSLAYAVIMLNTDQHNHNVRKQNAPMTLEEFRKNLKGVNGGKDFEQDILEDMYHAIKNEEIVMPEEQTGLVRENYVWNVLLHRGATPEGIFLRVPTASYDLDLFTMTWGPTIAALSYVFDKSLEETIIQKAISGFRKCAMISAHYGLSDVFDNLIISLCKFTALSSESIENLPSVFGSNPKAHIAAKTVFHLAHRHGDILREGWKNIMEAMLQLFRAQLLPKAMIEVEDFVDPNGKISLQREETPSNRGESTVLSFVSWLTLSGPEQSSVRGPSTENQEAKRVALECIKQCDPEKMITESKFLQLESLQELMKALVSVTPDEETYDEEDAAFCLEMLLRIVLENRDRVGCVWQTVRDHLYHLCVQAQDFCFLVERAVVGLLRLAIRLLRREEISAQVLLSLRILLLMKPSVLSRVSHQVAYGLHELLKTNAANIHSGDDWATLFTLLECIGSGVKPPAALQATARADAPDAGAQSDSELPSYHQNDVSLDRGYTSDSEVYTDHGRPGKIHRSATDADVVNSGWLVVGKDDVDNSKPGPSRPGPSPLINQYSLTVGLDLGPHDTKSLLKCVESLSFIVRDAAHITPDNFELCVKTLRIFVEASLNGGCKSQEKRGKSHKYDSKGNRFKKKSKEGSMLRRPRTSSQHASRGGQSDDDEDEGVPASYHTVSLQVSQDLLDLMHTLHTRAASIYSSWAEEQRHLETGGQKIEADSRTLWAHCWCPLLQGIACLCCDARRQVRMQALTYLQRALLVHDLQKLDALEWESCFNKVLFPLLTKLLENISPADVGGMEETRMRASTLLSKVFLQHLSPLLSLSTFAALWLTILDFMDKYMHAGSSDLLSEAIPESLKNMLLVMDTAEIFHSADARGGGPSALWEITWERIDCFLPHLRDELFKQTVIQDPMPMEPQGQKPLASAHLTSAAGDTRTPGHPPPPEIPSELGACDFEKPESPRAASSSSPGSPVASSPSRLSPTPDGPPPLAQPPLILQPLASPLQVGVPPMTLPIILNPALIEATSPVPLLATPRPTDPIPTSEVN
UniProt P50440: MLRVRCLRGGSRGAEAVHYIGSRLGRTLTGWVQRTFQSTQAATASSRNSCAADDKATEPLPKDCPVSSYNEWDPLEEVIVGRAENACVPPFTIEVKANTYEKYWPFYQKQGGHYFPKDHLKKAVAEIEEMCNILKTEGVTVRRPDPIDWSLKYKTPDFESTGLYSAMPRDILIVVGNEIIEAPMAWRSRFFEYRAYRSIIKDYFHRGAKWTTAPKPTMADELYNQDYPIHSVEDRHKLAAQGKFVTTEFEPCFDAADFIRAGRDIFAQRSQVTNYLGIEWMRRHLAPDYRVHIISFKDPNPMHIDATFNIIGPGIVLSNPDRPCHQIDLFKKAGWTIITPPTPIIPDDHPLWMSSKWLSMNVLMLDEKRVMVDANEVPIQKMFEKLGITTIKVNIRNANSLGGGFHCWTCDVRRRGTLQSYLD
UniProt P41250: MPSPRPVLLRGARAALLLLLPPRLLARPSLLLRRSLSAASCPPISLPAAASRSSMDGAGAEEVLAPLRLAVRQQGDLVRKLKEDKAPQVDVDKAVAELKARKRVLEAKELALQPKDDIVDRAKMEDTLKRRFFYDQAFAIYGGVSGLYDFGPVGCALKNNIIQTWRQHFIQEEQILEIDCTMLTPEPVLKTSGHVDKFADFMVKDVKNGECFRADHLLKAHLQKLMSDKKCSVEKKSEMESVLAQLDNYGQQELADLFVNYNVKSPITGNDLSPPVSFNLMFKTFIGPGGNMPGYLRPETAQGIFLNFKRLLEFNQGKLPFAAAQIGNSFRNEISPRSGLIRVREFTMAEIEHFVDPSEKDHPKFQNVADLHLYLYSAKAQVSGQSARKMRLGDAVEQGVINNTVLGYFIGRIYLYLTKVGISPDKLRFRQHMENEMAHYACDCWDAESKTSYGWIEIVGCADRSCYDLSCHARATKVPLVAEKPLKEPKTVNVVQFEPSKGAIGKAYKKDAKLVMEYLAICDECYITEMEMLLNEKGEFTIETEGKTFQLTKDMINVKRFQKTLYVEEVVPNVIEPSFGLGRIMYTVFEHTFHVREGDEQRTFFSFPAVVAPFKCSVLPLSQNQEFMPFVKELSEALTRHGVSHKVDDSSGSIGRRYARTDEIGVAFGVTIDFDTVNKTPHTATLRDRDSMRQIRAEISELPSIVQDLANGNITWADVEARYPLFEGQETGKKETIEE
UniProt P48507: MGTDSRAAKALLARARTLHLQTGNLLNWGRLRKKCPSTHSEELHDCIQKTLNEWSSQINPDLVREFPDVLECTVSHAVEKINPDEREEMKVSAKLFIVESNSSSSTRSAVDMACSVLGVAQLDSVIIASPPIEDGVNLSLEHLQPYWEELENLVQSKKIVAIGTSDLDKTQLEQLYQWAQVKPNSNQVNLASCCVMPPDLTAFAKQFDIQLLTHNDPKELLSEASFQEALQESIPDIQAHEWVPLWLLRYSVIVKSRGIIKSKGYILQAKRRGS
UniProt Q9UJY5: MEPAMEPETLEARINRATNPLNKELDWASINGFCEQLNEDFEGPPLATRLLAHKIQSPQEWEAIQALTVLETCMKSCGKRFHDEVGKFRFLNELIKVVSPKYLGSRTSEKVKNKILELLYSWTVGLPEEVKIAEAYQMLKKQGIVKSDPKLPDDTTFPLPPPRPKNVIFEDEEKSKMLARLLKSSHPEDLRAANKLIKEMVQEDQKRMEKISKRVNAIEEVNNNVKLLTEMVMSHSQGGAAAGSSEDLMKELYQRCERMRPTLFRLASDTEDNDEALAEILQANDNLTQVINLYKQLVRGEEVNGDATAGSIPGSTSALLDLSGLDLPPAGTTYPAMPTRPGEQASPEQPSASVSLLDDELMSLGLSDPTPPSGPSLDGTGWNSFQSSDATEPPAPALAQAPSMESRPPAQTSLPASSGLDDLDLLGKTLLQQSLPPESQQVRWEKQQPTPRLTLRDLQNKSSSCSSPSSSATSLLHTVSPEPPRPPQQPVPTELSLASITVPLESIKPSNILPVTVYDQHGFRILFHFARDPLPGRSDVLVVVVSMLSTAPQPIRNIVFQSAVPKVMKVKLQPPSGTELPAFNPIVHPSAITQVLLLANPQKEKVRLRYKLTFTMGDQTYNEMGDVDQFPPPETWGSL
UniProt P04406: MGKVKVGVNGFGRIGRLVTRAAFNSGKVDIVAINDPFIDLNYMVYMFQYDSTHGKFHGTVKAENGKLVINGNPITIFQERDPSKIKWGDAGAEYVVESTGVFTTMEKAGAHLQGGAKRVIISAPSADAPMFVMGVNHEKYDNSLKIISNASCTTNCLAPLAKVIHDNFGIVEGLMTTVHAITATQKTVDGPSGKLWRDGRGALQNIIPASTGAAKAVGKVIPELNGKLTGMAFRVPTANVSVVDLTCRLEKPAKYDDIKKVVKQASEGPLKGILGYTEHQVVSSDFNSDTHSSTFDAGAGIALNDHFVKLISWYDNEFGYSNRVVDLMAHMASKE
UniProt P38435: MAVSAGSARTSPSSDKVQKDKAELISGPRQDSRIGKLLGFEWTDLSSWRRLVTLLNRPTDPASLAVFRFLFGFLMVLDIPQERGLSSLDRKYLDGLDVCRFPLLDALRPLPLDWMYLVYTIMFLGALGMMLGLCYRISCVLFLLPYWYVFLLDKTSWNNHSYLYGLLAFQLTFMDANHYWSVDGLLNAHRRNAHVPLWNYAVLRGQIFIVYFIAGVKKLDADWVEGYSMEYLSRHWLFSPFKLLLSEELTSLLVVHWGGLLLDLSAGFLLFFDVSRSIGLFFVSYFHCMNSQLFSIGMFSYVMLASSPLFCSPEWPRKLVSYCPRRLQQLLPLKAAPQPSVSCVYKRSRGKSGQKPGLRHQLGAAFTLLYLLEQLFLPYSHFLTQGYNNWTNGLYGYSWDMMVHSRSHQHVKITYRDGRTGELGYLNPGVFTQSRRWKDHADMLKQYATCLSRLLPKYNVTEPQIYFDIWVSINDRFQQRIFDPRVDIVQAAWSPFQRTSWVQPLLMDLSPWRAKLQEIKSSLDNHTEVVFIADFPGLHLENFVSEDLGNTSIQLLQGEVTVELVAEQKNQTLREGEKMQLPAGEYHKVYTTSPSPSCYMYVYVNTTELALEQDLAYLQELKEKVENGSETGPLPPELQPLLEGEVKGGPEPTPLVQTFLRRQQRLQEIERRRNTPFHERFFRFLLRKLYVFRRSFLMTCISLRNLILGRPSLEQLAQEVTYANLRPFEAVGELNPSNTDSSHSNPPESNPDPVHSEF

Compound: Cc1cc(ccc1-c1ccccc1)C(=O)N1CCCN(CC1)C(=O)CCl [compound 10]
Assay: probe-labelled cysteine peptide fold change vs DMSO (competition) (log2 fold change); higher = less target engagement (more negative = stronger competition)
Settings: THP-1, incubation time: 4 h
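Also: competitive profiling in live THP-1 cells: cysteine peptides tagged with an iodoacetamide desthiobiotin (IA-DTB) probe, intensity after compound treatment relative to DMSO-treated cells.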

| Target | probe-labelled cysteine peptide fold change (10 µM) | probe-labelled cysteine peptide fold change (50 µM) |
| --- | --- | --- |
| GIMAP1_Q8WWP7_98_TDPGCEER (UniProt Q8WWP7) | -0.0325 | -0.0834 |
| GEMIN4_P57678_382_QVVSELAECVR (UniProt P57678) | 0.0204 | -0.0601 |
| GALNT12_Q8IXK2_125_WNPLCK (UniProt Q8IXK2) | -0.11 | -0.0301 |
| GANAB_Q14697_41+47_TCEESSFCK (UniProt Q14697) | -0.0702 | -0.158 |
| GEMIN4_P57678_317_LPSETIFVGCEFLHHLLR (UniProt P57678) | 0.0884 | -0.175 |
| GIMAP5_Q96F15_238_TGAGACQEDYR (UniProt Q96F15) | -0.145 | -0.239 |
| GCC2_Q8IWJ2_817+826_CLQEESVVQCEELK (UniProt Q8IWJ2) | -0.104 | -0.221 |
| GCN1_Q92616_449_HAYLQCMLASYR (UniProt Q92616) | 0.122 | 0.273 |
| GBF1_Q92538_1543_TLWAHCWCPLLQGIACLCCDAR (UniProt Q92538) | -0.0638 | -0.0692 |
| GEMIN5_Q8TEQ6_19_CSDAVPGGLFGFAAR (UniProt Q8TEQ6) | -0.0505 | -0.0281 |
| GBF1_Q92538_613_KETARPSCEIVDGTR (UniProt Q92538) | -0.298 | -0.378 |
| GIMAP2_Q9UG22_98_CYLLSAPGPHVLLLVTQLGR (UniProt Q9UG22) | -0.3 | 0.128 |
| GATM_P50440_50_NSCAADDK (UniProt P50440) | -0.478 | -1.27 |
| GARS_P41250_461_TSYGWIEIVGCADR (UniProt P41250) | 0.205 | -0.00336 |
| GFI1_Q99684_398_HTGFKPFGCDLCGK (UniProt Q99684) | 0.154 | 0.544 |
| GALNT1_Q10472_482_EIRTDDLCLDVSK (UniProt Q10472) | -0.0512 | -0.0895 |
| GK_P32189_220_QLCEFFGIPMEILPNVR (UniProt P32189) | 0.497 | 0.472 |
| GANAB_Q14697_47_TCEESSFCK (UniProt Q14697) | 0.169 | 0.227 |
| GFM1_Q96RP9_153_VLDGAVLVLCAVGGVQCQTMTVNR (UniProt Q96RP9) | -0.362 | 0.0464 |

| Target | probe-labelled cysteine peptide fold change (10 µM) | probe-labelled cysteine peptide fold change (50 µM) |
| --- | --- | --- |
| GCLM_P48507_35_CPSTHSEELHDCIQK (UniProt P48507) | 0.162 | -0.576 |
| GATM_P50440_131_KAVAEIEEMCNILK (UniProt P50440) | -0.0751 | -0.22 |
| GDI2_P50395_414_TYDATTHFETTCDDIK (UniProt P50395) | -0.0419 | -0.0345 |
| GARS_P41250_442+444_FRQHMENEMAHYACDCWDAESK (UniProt P41250) | 0.0206 | -0.755 |
| GCLM_P48507_35+46_CPSTHSEELHDCIQK (UniProt P48507) | -0.112 | -0.843 |
| GIT2_Q14161_235_LAFYLCGR (UniProt Q14161) | -0.031 | -0.172 |
| GGA2_Q9UJY4_429_NLLDLLSAQPAPCPLNYVSQK (UniProt Q9UJY4) | -0.304 | -0.871 |
| GGA1_Q9UJY5_73_IQSPQEWEAIQALTVLETCMK (UniProt Q9UJY5) | 0.2 | 0.173 |
| GAPDH_P04406_247_VPTANVSVVDLTCR (UniProt P04406) | 0.127 | 0.0861 |
| GGCX_P38435_343_AAPQPSVSCVYK (UniProt P38435) | -0.0547 | -0.0533 |
| GGPS1_O95749_138_DNYTCPTEEEYK (UniProt O95749) | 0.0949 | 0.243 |
| GINS4_Q9BRT9_53_FAPELLESKPEIVECVMEQLEHMEENLR (UniProt Q9BRT9) | -0.0503 | 0.0806 |
| GALNT7_Q86SF2_197_SVNDLRQEECK (UniProt Q86SF2) | -0.0144 | 0.0986 |
| GAPDH_P04406_152+156_IISNASCTTNCLAPLAK (UniProt P04406) | 0.128 | -0.879 |
| GANAB_Q14697_822_RSSECMKDDPITLFVALSPQGTAQGELFLDDGHTFNYQTR (UniProt Q14697) | -0.171 | -0.418 |
| GAS7_O60861_318_CDHHIADLR (UniProt O60861) | 0.0812 | 0.152 |
| GAPVD1_Q14C86_71_LIITSAEASPAECCQHAK (UniProt Q14C86) | -0.0179 | -0.441 |
| GATM_P50440_410_NANSLGGGFHCWTCDVR (UniProt P50440) | 0.0489 | 0.0707 |
